# Measurements as given in PMC10417383, “DNA-Binding Activity of CAMTA3 Is Essential for Its Function: Identification of Critical Amino Acids for Its Transcriptional Activity”.
# A weaker result is weaker than the reference pair of the same experiment. Tags and fusion partners may be left off the protein sequences shown.
# Molecular target: T1, CAMTA3 CG-1 M5 W118A (Arabidopsis thaliana) (UniProt Q8GSA7)
# T1 sequence (looked up): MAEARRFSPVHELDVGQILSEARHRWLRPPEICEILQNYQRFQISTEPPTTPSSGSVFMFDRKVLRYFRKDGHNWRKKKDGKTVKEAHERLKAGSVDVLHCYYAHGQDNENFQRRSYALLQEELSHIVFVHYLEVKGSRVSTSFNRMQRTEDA
# Experiment: EMSA
# Conditions: complex detected only from 100 ng protein (WT 25 ng), reduced by unlabeled PDF1.4 competitor; 1X LightShift EMSA binding buffer, 50 ng/ul poly(dI-dC), 20 fmol probe in 20 ul, +/- 4 pmol unlabeled DNA, room temperature 30 min; 5% native PAGE, 0.5X TBE; recombinant protein; residues 1-153; protein details: His (pET28a); label: 3'-biotin on strand 1
sequence,measurement,value
CGTGAAAGTCACGCGCCAAGAACAAA (double strand) [PDF1.4 promoter probe],binding result,binds more weakly
